Reference: the supplement of paper PMC10735217
Counter-ions that a name gives are not always drawn. The list shows a part of the results. Single values are uncertain here, since repeats match poorly.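 In a drug-repurposing library screen, luminescence reads luciferase driven by eight TEAD-binding elements, stably integrated into human kidney-derived cells. Compounds scoring over five robust Z scores above the plate mean are called hits.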

Test system: HEK293A TEAD-LUC reporter
Assay: TEAD-luciferase reporter activity (YAP activation), robust Z score vs plate; higher = stronger YAP/TEAD activation
Conditions: 24 h

| SMILES | TEAD-luciferase reporter activity (compound concentration: 200 nM) | TEAD-luciferase reporter activity (compound concentration: 2 uM) | TEAD-luciferase reporter activity (compound concentration: 10 uM) |
| --- | --- | --- | --- |
| CC(C)(C)c1cc(CCCOCc2cccnc2)cc(C(C)(C)C)c1O [Nicanartine] | inactive: 2.08 | inactive: -0.755 | inactive: 3.12 |
| CC1=C(C(=O)OCCN(Cc2ccccc2)c2ccccc2)C(c2cccc([N+](=O)[O-])c2)C(P2(=O)OCC(C)(C)CO2)=C(C)N1 (stereo not drawn) [efonidipine] | inactive: -0.433 | inactive: 0.913 | inactive: -1.11 |
| COc1ccc2[nH]cc(CCNC(=O)c3cc(=O)cco3)c2c1 [Piromelatine] | inactive: -0.298 | inactive: 1.68 | inactive: 1.6 |
| Nc1nncs1 [Aminothiadiazole] | inactive: -2.81 | inactive: -0.149 | inactive: -0.399 |
| CC(=O)N(O)CCCCCNC(=O)CCC(=O)N(O)CCCCCNC(=O)CCC(=O)N(O)CCCCCN [Deferoxamine Mesylate] | inactive: -0.0427 | – | inactive: -0.917 |
| CC(=O)N(O)CCCCCNC(=O)CCC(=O)N(O)CCCCCNC(=O)CCC(=O)N(O)CCCCCN [deferoxamine, Sanomune] | – | inactive: -1.02 | – |
| CC(C)Nc1cccnc1N1CCN(C(=O)c2cc3cc(O)ccc3[nH]2)CC1 | inactive: -2.49 | inactive: -1.15 | inactive: -0.238 |
| CNC(=O)c1cccc(NCC(=O)NCCc2ccc(OC)c(OC)c2)c1 [Ecabapide] | – | inactive: 0.781 | – |
| CNC(=O)c1cccc(NCC(=O)NCCc2ccc(OC)c(OC)c2)c1 | inactive: -1.5 | – | inactive: 0.562 |
| COc1ccc(CCNC(=O)C(Cc2c[nH]c3ccccc23)NC(C)=O)cc1 (stereo not drawn) | inactive: -1.76 | inactive: -0.394 | inactive: -1.66 |
| CC1(C)C=C(c2cccc[n+]2[O-])c2cc(C(F)(F)C(F)(F)F)ccc2C1=O | inactive: -1.61 | inactive: -2.45 | inactive: -0.98 |
| Cc1c(O)cccc1C(=O)N[C@@H](CSc1ccccc1)[C@H](O)CN1C[C@H]2CCCC[C@H]2C[C@H]1C(=O)NC(C)(C)C | inactive: -1.84 | – | inactive: -0.718 |
| Cc1c(O)cccc1C(=O)N[C@@H](CSc1ccccc1)[C@H](O)CN1C[C@H]2CCCC[C@H]2C[C@H]1C(=O)NC(C)(C)C [nelfinavir mesylate] | – | inactive: -0.642 | – |
| CN(C)CCC(Sc1cccc2ccccc12)c1cccs1 (stereo not drawn) | inactive: -0.832 | inactive: -0.549 | inactive: -1.02 |
| N=C(N)NCCC[C@H](NC(=O)[C@@H]1CC2CCCCC2N1C(=O)[C@H]1Cc2ccccc2CN1C(=O)[C@H](CO)NC(=O)[C@H](Cc1cccs1)NC(=O)CNC(=O)[C@@H]1C[C@@H](O)CN1C(=O)[C@@H]1CCCN1C(=O)[C@@H](CCCNC(=N)N)NC(=O)[C@@H](N)CCCNC(=N)N)C(=O)O (stereo partly drawn) [icatibant] | inactive: 0.581 | inactive: 0.398 | inactive: 0.976 |
| C=C[C@]1(C)C[C@@H](O)[C@]2(C)C(C)CCC3(CCC(=O)C32)[C@@H](C)[C@@H]1O (stereo partly drawn) | inactive: 1.12 | inactive: -1.66 | inactive: -1.13 |
| COC(=O)c1cn(C2CC2)c2c(OC(F)F)c(-c3ccc4c(c3)CN[C@@H]4C)ccc2c1=O | inactive: -1.04 | inactive: 0.385 | inactive: -0.667 |
| Cc1ccc(S(=O)(=O)NC(C(=O)O)C(C)C)cc1 (stereo not drawn) | inactive: -1.01 | inactive: -0.78 | inactive: -1.07 |
| CC(C)[C@H](NC(=O)[C@H](CC(=O)O)NC(=O)CCCOc1ccc(C(=N)N)cc1)C(=O)O | inactive: -1.07 | inactive: 2.22 | inactive: -0.125 |

Reformatted with bars between the fields: entries from further up.
SMILES | TEAD-luciferase reporter activity (compound concentration: 200 nM) | TEAD-luciferase reporter activity (compound concentration: 2 uM) | TEAD-luciferase reporter activity (compound concentration: 10 uM)
CC(C)(C)c1cc(CCCOCc2cccnc2)cc(C(C)(C)C)c1O [Nicanartine] | inactive: 2.08 | inactive: -0.755 | inactive: 3.12
CC1=C(C(=O)OCCN(Cc2ccccc2)c2ccccc2)C(c2cccc([N+](=O)[O-])c2)C(P2(=O)OCC(C)(C)CO2)=C(C)N1 (stereo not drawn) [efonidipine] | inactive: -0.433 | inactive: 0.913 | inactive: -1.11
Nc1nncs1 [Aminothiadiazole] | inactive: -2.81 | inactive: -0.149 | inactive: -0.399
CC(=O)N(O)CCCCCNC(=O)CCC(=O)N(O)CCCCCNC(=O)CCC(=O)N(O)CCCCCN [Deferoxamine Mesylate] | inactive: -0.0427 | – | inactive: -0.917
CC(=O)N(O)CCCCCNC(=O)CCC(=O)N(O)CCCCCNC(=O)CCC(=O)N(O)CCCCCN [deferoxamine, Sanomune] | – | inactive: -1.02 | –
CC(C)Nc1cccnc1N1CCN(C(=O)c2cc3cc(O)ccc3[nH]2)CC1 | inactive: -2.49 | inactive: -1.15 | inactive: -0.238
CC1(C)C=C(c2cccc[n+]2[O-])c2cc(C(F)(F)C(F)(F)F)ccc2C1=O | inactive: -1.61 | inactive: -2.45 | inactive: -0.98
Cc1c(O)cccc1C(=O)N[C@@H](CSc1ccccc1)[C@H](O)CN1C[C@H]2CCCC[C@H]2C[C@H]1C(=O)NC(C)(C)C [nelfinavir mesylate] | – | inactive: -0.642 | –
CN(C)CCC(Sc1cccc2ccccc12)c1cccs1 (stereo not drawn) | inactive: -0.832 | inactive: -0.549 | inactive: -1.02
N=C(N)NCCC[C@H](NC(=O)[C@@H]1CC2CCCCC2N1C(=O)[C@H]1Cc2ccccc2CN1C(=O)[C@H](CO)NC(=O)[C@H](Cc1cccs1)NC(=O)CNC(=O)[C@@H]1C[C@@H](O)CN1C(=O)[C@@H]1CCCN1C(=O)[C@@H](CCCNC(=N)N)NC(=O)[C@@H](N)CCCNC(=N)N)C(=O)O (stereo partly drawn) [icatibant] | inactive: 0.581 | inactive: 0.398 | inactive: 0.976
COC(=O)c1cn(C2CC2)c2c(OC(F)F)c(-c3ccc4c(c3)CN[C@@H]4C)ccc2c1=O | inactive: -1.04 | inactive: 0.385 | inactive: -0.667

Remaining list, next part

| SMILES | TEAD-luciferase reporter activity (compound concentration: 200 nM) | TEAD-luciferase reporter activity (compound concentration: 2 uM) | TEAD-luciferase reporter activity (compound concentration: 10 uM) |
| --- | --- | --- | --- |
| CCCn1c(C(C)N2CCN(S(=O)(=O)c3ccc(Br)cc3)CC2)nc2ccccc2c1=O (stereo not drawn) | inactive: 0.171 | inactive: 0.0187 | inactive: -1.72 |
| N=C(N)Nc1ccc(C(=O)Oc2ccc(S(N)(=O)=O)cc2)cc1 | inactive: -0.558 | inactive: 0.273 | inactive: -0.337 |
| CC(=O)c1ccc2c(c1)N(CC(C)N(C)C)c1ccccc1S2 (stereo not drawn) | inactive: -1.33 | inactive: 1.64 | inactive: 0.831 |
| C1CCC2=NCCCN2CC1 | inactive: 0.00386 | inactive: -0.775 | inactive: -0.00154 |
| CCCn1nc(C(C)C)c(C(=O)O)c1Cc1ccc(-c2ccccc2-c2nnn[nH]2)cc1 | inactive: -0.938 | inactive: -0.747 | inactive: -0.347 |
| Cc1ccc(NS(=O)(=O)c2cccc(C#N)c2)c2[nH]cc(C#N)c12 | inactive: 0.23 | inactive: 3.86 | active: 5.09 |
| CC1=C(CO)C(=O)O[C@@H]([C@@H](C)[C@H]2CCC3[C@@H]4C[C@H]5O[C@]56[C@@H](O)C=CC(=O)[C@]6(C)C4CC[C@@]32C)C1 (stereo partly drawn) | inactive: -1.07 | inactive: 1.6 | active: 7.16 |
| COc1ccc(OCC(O)CN2CCC(c3ccc(O)cc3)CC2)cc1 (stereo not drawn) | inactive: 1.97 | inactive: -0.0381 | inactive: 4.19 |
| NCCC(=O)NCCSSCCNC(=O)CCN | inactive: -0.168 | – | inactive: -0.579 |
| NCCC(=O)NCCSSCCNC(=O)CCN [beta-Alethine] | – | inactive: -0.769 | – |
| O=C(C1CCCN(S(=O)(=O)c2cccc(C(F)(F)F)c2)C1)N1CCC(N2CCCC2=O)CC1 (stereo not drawn) | inactive: 2.58 | – | inactive: -1.41 |
| C#C[C@]1(O)CC[C@H]2[C@@H]3CCC4=CC(=O)CC[C@@H]4[C@H]3CC[C@@]21CC [Levonorgestrel] | inactive: -0.944 | inactive: -0.0392 | inactive: -0.154 |
| CN(Cc1cnc2nc(N)nc(N)c2n1)c1ccc(C(=O)N[C@@H](CCC(=O)O)C(=O)O)cc1 | inactive: 2.44 | – | inactive: 1.65 |
| CN(Cc1cnc2nc(N)nc(N)c2n1)c1ccc(C(=O)N[C@@H](CCC(=O)O)C(=O)O)cc1 [Methotrexate] | – | inactive: -0.263 | – |
| C[C@H](NC(=O)C(C)(C)Oc1ccc(C(F)(F)F)cn1)[C@@H](Cc1ccc(Cl)cc1)c1ccc(Cl)cc1 [CB1R inverse agonist, Merck] | inactive: -0.335 | inactive: -0.59 | inactive: -1.24 |
| CC(COc1ccccc1)NC(C)C(O)c1ccc(O)cc1 (stereo not drawn) [Duvadilan] | inactive: -0.588 | – | inactive: -1.67 |
| CC(COc1ccccc1)NC(C)C(O)c1ccc(O)cc1 (stereo not drawn) | – | inactive: 0.337 | – |
| C#Cc1ccc2c(c1)CCC1=C(C)C(=O)CCN12 | inactive: -1.47 | inactive: 1.15 | inactive: 0.812 |
| C[C@@H]1CCNC1c1nc2c(C(N)=O)cccc2[nH]1 (stereo partly drawn) | inactive: -1.23 | inactive: -0.594 | inactive: -0.606 |

| SMILES | TEAD-luciferase reporter activity (compound concentration: 200 nM) | TEAD-luciferase reporter activity (compound concentration: 2 uM) | TEAD-luciferase reporter activity (compound concentration: 10 uM) |
| --- | --- | --- | --- |
| N=C(N)NCCC[C@H](NC(=O)CNC(=O)CCSC(=O)c1ccccc1)C(=O)O [argitiopronine] | inactive: -1.7 | inactive: -0.637 | inactive: 2.66 |
| CC(C)S(=O)(=O)n1c(N)nc2ccc(/C(=N/O)c3ccccc3)cc21 [Enviroxime] | inactive: -1.71 | inactive: -1.97 | inactive: -1.64 |
| CN(C)c1ccc([P+](CCCCl)(c2ccc(N(C)C)cc2)c2ccc(N(C)C)cc2)cc1 | inactive: -1.91 | inactive: -0.504 | inactive: 0.72 |
| CN1CCN(c2ccc(Nc3ncc4cc5n(c4n3)C3(CCCCC3)CNC5=O)nc2)CC1 [Trilaciclib hydrochloride] | inactive: -0.639 | – | inactive: 1.1 |
| O=C(Cn1c2ccccc2c2c(N3CCCC3)nc(N3CCCC3)nc21)N1CCCC1 | inactive: -0.924 | inactive: 1.3 | inactive: 3.17 |
| CCCCc1oc2ccc(NS(C)(=O)=O)cc2c1C(=O)c1ccc(OCCCN(CCCC)CCCC)cc1 [dronedarone hydrochloride] | inactive: -2.53 | inactive: 1.4 | active: 7.15 |
| COc1c(OC)c(OC(C)=O)c2cc(Cl)ccc2c1OC(C)=O | inactive: -1.01 | inactive: 1.61 | inactive: -1.19 |
| COc1ccc(CC(=O)N2CCC3(CC2)CC(NC(C)=O)c2ccccc23)cc1 (stereo not drawn) | inactive: 0.0964 | – | inactive: 0.459 |
| CCOC(=O)c1cc(OC)ccc1O | inactive: -0.469 | inactive: 0.517 | inactive: -1.34 |
| CC(CN(C)C)CN1c2ccccc2Sc2ccccc21 (stereo not drawn) [Trimeprazine tartrate] | – | inactive: 3.73 | – |
| CC(CN(C)C)CN1c2ccccc2Sc2ccccc21 (stereo not drawn) | inactive: -0.516 | – | active: 10 |
| CCc1noc(C2CN=CNC2)n1 (stereo not drawn) | inactive: -0.254 | inactive: 0.172 | inactive: -1.03 |
| O=C(O)Cn1c(C(=O)Nc2nc(-c3ccccc3Cl)cs2)cc2ccccc21 | inactive: -0.403 | active: 7.88 | active: 10.7 |
| CCOC(=O)/C=C/C(=O)O [monoethyl maleate] | inactive: -0.275 | inactive: -1.8 | inactive: -1.19 |
| CCc1cc(NCc2nc3c(Cl)ccc(Cl)c3o2)c(=O)[nH]c1C | inactive: -1.38 | inactive: -1.81 | inactive: -0.947 |
| O=C1NCc2ccccc2CC12CCCN2Cc1ccc(F)cc1 (stereo not drawn) | inactive: -0.119 | – | inactive: -1.38 |
| CN(C)CCOC(c1ccccc1)c1ccccc1 | inactive: -0.0598 | – | inactive: 3.92 |
| CN(C)CCOC(c1ccccc1)c1ccccc1 [Diphenhydramine hydrochloride] | – | inactive: 0.46 | – |
| COCC1=C(C(=O)OC)C(c2ccc(F)c(F)c2)N(C(=O)NCCCN2CCC(c3ccccn3)CC2)C(=O)N1 (stereo not drawn) | inactive: 0.338 | inactive: -1.11 | inactive: -1.37 |
